{"source": "PubChem BioAssay AID1259308 (NCATS, 2017)", "test": "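Candidate targets for better recombinant protein yield in mammalian cells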 (primary screen)", "cell system": "human HEK293 embryonic kidney cells stably expressing firefly luciferase (HEK-CMV-Luc2-Hygro)", "reagent": "single siRNA against human genes, 0.8 pmol siRNA per well", "timing": "72 h", "measurement": "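Luciferase light (ONE-Glo) measured on one replicate plate set and viability (CellTiter-Glo) on the other, scaled to a negative control siRNA, with robust z-scores and luciferase per cell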", "reading the numbers": "total luciferase, z-score and total luciferase, % of control: higher = more reporter protein produced", "call rule": "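An siRNA counts as active if its total luciferase robust z-score exceeds 3; genes with two or more such siRNAs out of three were retested with fresh siRNAs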", "calls": "active = raised luciferase; inactive = no rise", "note": "Shown is one part, drawn at random, of about 59,000 reagents. Over the whole deposit, about 1,510 (2.6%) got an active call. 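Calls use total luciferase alone and ignore viability, so some active siRNAs may act by altering cell number.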 A number with no mark means an inactive call. Reagents against one gene are numbered here. Further read-outs or replicates are left out here."}
{"Target gene": "MBD3 (methyl-CpG binding domain protein 3)", "reagent": 1, "total luciferase, z-score": 0.832, "total luciferase, % of control": 98.4}
{"Target gene": "MBD3 (methyl-CpG binding domain protein 3)", "reagent": 2, "total luciferase, z-score": "3.31 (active)", "total luciferase, % of control": 148}
{"Target gene": "MBD3 (methyl-CpG binding domain protein 3)", "reagent": 3, "total luciferase, z-score": 2.19, "total luciferase, % of control": 125}
{"Target gene": "ANKK1 (ankyrin repeat and kinase domain containing 1)", "reagent": 1, "total luciferase, z-score": 0.191, "total luciferase, % of control": 85.7}
{"Target gene": "ANKK1 (ankyrin repeat and kinase domain containing 1)", "reagent": 2, "total luciferase, z-score": 0.011, "total luciferase, % of control": 82.1}
{"Target gene": "ANKK1 (ankyrin repeat and kinase domain containing 1)", "reagent": 3, "total luciferase, z-score": -1.32, "total luciferase, % of control": 55.7}
{"Target gene": "MAP2K5 (mitogen-activated protein kinase kinase 5)", "reagent": 1, "total luciferase, z-score": -0.0634, "total luciferase, % of control": 80.6}
{"Target gene": "MAP2K5 (mitogen-activated protein kinase kinase 5)", "reagent": 2, "total luciferase, z-score": 0.777, "total luciferase, % of control": 97.3}
{"Target gene": "MAP2K5 (mitogen-activated protein kinase kinase 5)", "reagent": 3, "total luciferase, z-score": -1.02, "total luciferase, % of control": 61.5}
{"Target gene": "ASAP2 (ArfGAP with SH3 domain, ankyrin repeat and PH domain 2)", "reagent": 1, "total luciferase, z-score": 0.589, "total luciferase, % of control": 93.6}
{"Target gene": "ASAP2 (ArfGAP with SH3 domain, ankyrin repeat and PH domain 2)", "reagent": 2, "total luciferase, z-score": -1.74, "total luciferase, % of control": 47.3}
{"Target gene": "ASAP2 (ArfGAP with SH3 domain, ankyrin repeat and PH domain 2)", "reagent": 3, "total luciferase, z-score": 0.932, "total luciferase, % of control": 100}
{"Target gene": "RGS3 (regulator of G protein signaling 3)", "reagent": 1, "total luciferase, z-score": -0.494, "total luciferase, % of control": 72.1}
{"Target gene": "RGS3 (regulator of G protein signaling 3)", "reagent": 2, "total luciferase, z-score": -0.644, "total luciferase, % of control": 69.1}
{"Target gene": "RGS3 (regulator of G protein signaling 3)", "reagent": 3, "total luciferase, z-score": 0.89, "total luciferase, % of control": 99.6}
{"Target gene": "NKX6-1 (NK6 homeobox 1)", "reagent": 1, "total luciferase, z-score": 0.182, "total luciferase, % of control": 85.5}
{"Target gene": "NKX6-1 (NK6 homeobox 1)", "reagent": 2, "total luciferase, z-score": -0.0401, "total luciferase, % of control": 81.1}
{"Target gene": "NKX6-1 (NK6 homeobox 1)", "reagent": 3, "total luciferase, z-score": -0.0222, "total luciferase, % of control": 81.4}

Part of the list above, limited to “total luciferase, z-score”.
ANKK1 (ankyrin repeat and kinase domain containing 1) #1 = 0.191
ANKK1 (ankyrin repeat and kinase domain containing 1) #2 = 0.011
ANKK1 (ankyrin repeat and kinase domain containing 1) #3 = -1.32
MAP2K5 (mitogen-activated protein kinase kinase 5) #1 = -0.0634

Additional records follow.
{"Target gene": "RNLS (renalase, FAD dependent amine oxidase)", "reagent": 1, "total luciferase, z-score": -1.24, "total luciferase, % of control": 57.2}
{"Target gene": "RNLS (renalase, FAD dependent amine oxidase)", "reagent": 2, "total luciferase, z-score": -0.634, "total luciferase, % of control": 69.3}
{"Target gene": "RNLS (renalase, FAD dependent amine oxidase)", "reagent": 3, "total luciferase, z-score": 0.648, "total luciferase, % of control": 94.8}
{"Target gene": "LOC646670 (retired record)", "reagent": 1, "total luciferase, z-score": -0.375, "total luciferase, % of control": 74.4}
{"Target gene": "LOC646670 (retired record)", "reagent": 2, "total luciferase, z-score": -1.11, "total luciferase, % of control": 59.7}
{"Target gene": "LOC646670 (retired record)", "reagent": 3, "total luciferase, z-score": 0.571, "total luciferase, % of control": 93.2}
{"Target gene": "CASP3 (caspase 3)", "reagent": 1, "total luciferase, z-score": -2.02, "total luciferase, % of control": 41.6}
{"Target gene": "CASP3 (caspase 3)", "reagent": 2, "total luciferase, z-score": -1.61, "total luciferase, % of control": 50}
{"Target gene": "CASP3 (caspase 3)", "reagent": 3, "total luciferase, z-score": -2.05, "total luciferase, % of control": 41.2}
{"Target gene": "MTHFS (methenyltetrahydrofolate synthetase)", "reagent": 1, "total luciferase, z-score": 0.467, "total luciferase, % of control": 91.2}
{"Target gene": "MTHFS (methenyltetrahydrofolate synthetase)", "reagent": 2, "total luciferase, z-score": -0.355, "total luciferase, % of control": 74.8}
{"Target gene": "MTHFS (methenyltetrahydrofolate synthetase)", "reagent": 3, "total luciferase, z-score": -1.45, "total luciferase, % of control": 53.1}
{"Target gene": "NRDE2 (NRDE-2, necessary for RNA interference, domain containing)", "reagent": 1, "total luciferase, z-score": -0.414, "total luciferase, % of control": 73.6}
{"Target gene": "NRDE2 (NRDE-2, necessary for RNA interference, domain containing)", "reagent": 2, "total luciferase, z-score": 0.48, "total luciferase, % of control": 91.4}
{"Target gene": "NRDE2 (NRDE-2, necessary for RNA interference, domain containing)", "reagent": 3, "total luciferase, z-score": -1.88, "total luciferase, % of control": 44.5}
